PMC8693860

Molecular target: T1, SF-tagged Atg8 (S. cerevisiae) (UniProt P38182)
T1 sequence: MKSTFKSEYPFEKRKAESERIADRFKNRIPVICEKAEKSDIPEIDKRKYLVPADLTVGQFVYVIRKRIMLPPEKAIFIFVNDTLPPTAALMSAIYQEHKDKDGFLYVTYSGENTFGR
Assay: pull-down; SF-tagged Atg8 on anti-FLAG resin as bait; Atg1 preparations (whole, AIM mutants, truncations) autophosphorylated (ATP/Mg2+) or dephosphorylated with λ-PP, treated with apyrase before addition; 15 min at room temperature, three washes, elution with 3xFLAG peptide, SDS-PAGE; both purified

binding | Substance
binds weakly | Atg1 N-terminal kinase domain (truncation of Atg1^ΔAIM/S^>^A) (S. cerevisiae) (domain or fragment)
no binding | Atg1 central region (truncation of Atg1^ΔAIM/S^>^A) (S. cerevisiae) (domain or fragment)

Results are given in words; binding and its absence hold for the method and conditions named. A result given as binding can be weak or reduced; the word gives no strength. Tags and fused reporters may be left off the sequences shown.
